{"source": "PubChem BioAssay AID493014", "about": "(National Center for Advancing Translational Sciences (NCATS), 2011)", "note": "Among all 340,000 compounds or so, about 170 (0.05%) were called active. Inconclusive results, whose numbers are uncertain, are shown with a selection of clear calls. Calls come from the whole dose curve; as a rule, active = well fitted inhibition curve with a large enough effect in the signal ratio, with a control signal flat (not every such curve was filed as active); inconclusive = small, poorly fitted or top-dose-only effect, or effect the other way, or a change in a side signal; inactive = flat fitted curve, though single readings scatter; the % refers to the signal ratio. Potencies beside an inconclusive call are fits to weak or partial responses and may not hold up. Potency is the fitted concentration of half-maximal effect.", "data": [{"test": "qHTS Assay to Find Inhibitors of Chronic Active B-Cell Receptor Signaling;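 for activity change, negative = inhibition: plate controls were basal doxycycline-induced cells for no effect and cells given 10 µM MG132 for full effect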", "settings": "ABC-DLBCL IkBa-CBG/CBR reporter, luminescence ratio (green luciferase fused to IkBa over red control in TMD8 lymphoma cells), 4 h; activity change, negative = inhibition: at 46.1 µM (top of the series)", "in_short": "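Concentration-response series (up to 46 uM) were applied to TMD8 dual-reporter cells for 4 h at 37C with doxycycline. Green/red ratio, after filter-overlap correction, defined %Activity; red signal alone was normalised to basal cells and zero luminescence.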", "values": [{"smiles": "COCCn1nnnc1C(c1ccccn1)N1CCN(c2cc(Cl)ccc2C)CC1", "note": "(centres undefined)", "activity change, negative = inhibition": "inconclusive: -13.3%"}, {"smiles": "CCn1c(=O)c(C(=O)Nc2ncccc2O)c(O)c2ccccc21", "Potency": "inconclusive: 22.4 µM [falling, single point]"}, {"smiles": "O=C(COC(=O)c1ccccc1)Nc1ccccc1Sc1ccccc1", "Potency": "inconclusive: 25.9 µM [falling, partial curve, poor fit]"}, {"smiles": "Cc1cc(SCNC(=O)c2ccccc2)nc(C(C)C)n1", "activity change, negative = inhibition": "inconclusive: -8.94%"}, {"smiles": "CCNC(=O)CSc1nc2cc(S(=O)(=O)Nc3ccc(OC)cc3)ccc2o1", "activity change, negative = inhibition": "inactive: -18.5%"}, {"smiles": "CCN(C(=O)COC(=O)CCC(=O)c1cccs1)c1c(N)n(Cc2ccccc2)c(=O)[nH]c1=O", "activity change, negative = inhibition": "inactive: 7.12%"}, {"smiles": "COc1ccc2nc(Nc3nc(CSc4ccc(C)cc4)cc(=O)[nH]3)nc(C)c2c1", "activity change, negative = inhibition": "inactive: -5.47%"}, {"smiles": "Cc1c(C(=O)NCc2ccccn2)sc2nc(-c3ccccc3)cn12", "activity change, negative = inhibition": "inconclusive: -0.575%"}, {"smiles": "COc1ccccc1Nc1nc(NCC2CCCO2)c2ccccc2n1", "note": "(centres undefined)", "activity change, negative = inhibition": "inconclusive: -19.6%"}, {"smiles": "O=Cc1ccc(OC(=O)c2cc(Cl)nc3ccccc23)cc1", "activity change, negative = inhibition": "inactive: 0.548%"}, {"smiles": "COC(=O)C1=C(C)NC(C)=C(C(=O)OC)C1C(=O)OCC(=O)c1ccc(Br)cc1", "activity change, negative = inhibition": "inconclusive: -8.91%"}, {"smiles": "CC(=O)Nc1cccc(NS(=O)(=O)c2c(C)noc2C)c1", "activity change, negative = inhibition": "inconclusive: 0.298%"}, {"smiles": "COc1cccc(NC(=O)CSc2nc(=O)n(Cc3cccnc3)c3c2CCC3)c1", "activity change, negative = inhibition": "inconclusive: -11%"}, {"smiles": "O=C(CCCn1cnc([N+](=O)[O-])n1)Nc1ccc(F)c(Cl)c1", "activity change, negative = inhibition": "inconclusive: -8.86%"}, {"smiles": "O=C(O)[C@H](Cc1ccccc1)NC(=O)N1CCCCCC1", "activity change, negative = inhibition": "inconclusive: 6.9%"}, {"smiles": "COc1ccc(-n2nc(C(=O)NCC(=O)Nc3cccc(NC(C)=O)c3)c3ccccc3c2=O)cc1", "activity change, negative = inhibition": "inconclusive: 0.677%"}, {"smiles": "Cc1ccc(S(=O)(=O)CC(=O)Nc2ncc([N+](=O)[O-])s2)cc1", "Potency": "inconclusive: 6.31 µM [falling, partial curve]"}, {"smiles": "CCOC(CNc1ncnc2sc(-c3ccccc3)cc12)OCC", "activity change, negative = inhibition": "inactive: -0.288%"}, {"smiles": "CCN(C(=O)c1cccnc1SC)C12CC3CC(CC(C3)C1)C2", "activity change, negative = inhibition": "inactive: 2.61%"}, {"smiles": "CCC(C)NC(=O)c1cn(CC)c2cc(N3CCN(C)CC3)c(F)cc2c1=O", "note": "(centres undefined)", "activity change, negative = inhibition": "inconclusive: 17.2%"}, {"smiles": "O=C1OC(c2ccccc2)=NC12CC2c1ccc(Cl)cc1", "note": "(centres undefined)", "activity change, negative = inhibition": "inconclusive: -14.1%"}, {"smiles": "CCOc1ncccc1C(=O)Nc1ccc(-c2ccc3nnc(C)n3n2)cc1", "activity change, negative = inhibition": "inconclusive: -5.18%"}, {"smiles": "COc1ccc(F)cc1S(=O)(=O)NCC(=O)NCc1cc(=O)n(C)c(=O)n1C", "activity change, negative = inhibition": "inactive: 3.69%"}, {"smiles": "CCSc1nc(N)c(C#N)c(-c2ccccc2Cl)c1C#N", "Potency": "inconclusive: 18.4 µM [rising, single point]"}, {"smiles": "CCC(C)NCC(O)(c1ccc(Cl)cc1)c1ccc(Cl)cc1", "note": "(centres undefined)", "activity change, negative = inhibition": "inconclusive: -20.6%"}, {"smiles": "CCOc1ccccc1N1CCN(C(=O)Nc2ccc(F)c(Cl)c2)CC1", "activity change, negative = inhibition": "inconclusive: 19.8%"}, {"smiles": "C=CCNc1nc(NCCO)nc(N2CCCC2)n1", "activity change, negative = inhibition": "inconclusive: 1.5%"}, {"smiles": "CCCC(=O)N1CC(=O)Nc2ccc(Br)cc2C1c1ccc(F)cc1", "note": "(centres undefined)", "activity change, negative = inhibition": "inactive: -1.37%"}, {"smiles": "Cc1cc(NC(=O)OC2CCCCC2)ccc1[N+](=O)[O-]", "Potency": "inconclusive: 22.4 µM [falling, single point]"}, {"smiles": "O=C(C1CCCO1)N1CCN(S(=O)(=O)c2cc(F)ccc2F)CC1", "note": "(centres undefined)", "activity change, negative = inhibition": "inactive: 0.77%"}, {"smiles": "O=C(CCl)N1N=C(c2ccco2)CC1c1cccs1", "note": "(centres undefined)", "activity change, negative = inhibition": "inconclusive: -21.7%"}, {"smiles": "CCCCn1c(=N)n(CC(=O)c2ccco2)c2ccccc21", "activity change, negative = inhibition": "inactive: -2.54%"}, {"smiles": "Nc1ccccc1-c1ccccc1N", "Potency": "inconclusive: 0.631 µM [falling, full curve, poor fit]"}, {"smiles": "C/C(=N\\NC(=S)NCc1ccccc1)c1ccc2ccccc2c1", "activity change, negative = inhibition": "inactive: 1.2%"}, {"smiles": "Cn1c(SCC(=O)N2CCCCC2)nc2cccnc21", "activity change, negative = inhibition": "inconclusive: 1.32%"}, {"smiles": "COc1cccc(-c2nc(-c3ccc(Br)o3)no2)c1", "activity change, negative = inhibition": "inconclusive: 9.39%"}, {"smiles": "Cc1ccsc1C(=O)Nc1ccc2c(c1)OCCO2", "Potency": "inconclusive: 23.1 µM [falling, partial curve]"}, {"smiles": "CCc1c(-c2ccccc2)nc2ccccc2c1C(=O)NC(C)c1ccccc1", "note": "(centres undefined)", "activity change, negative = inhibition": "inconclusive: -23%"}, {"smiles": "Cc1cccc(N2CC(C(=O)Nc3nnc(SCCC4OCCO4)s3)CC2=O)c1", "note": "(centres undefined)", "activity change, negative = inhibition": "inconclusive: -1.37%"}, {"smiles": "CCc1ccc(-c2cc(C)no2)cc1S(=O)(=O)N1CCC(C)CC1", "activity change, negative = inhibition": "inactive: 0.997%"}, {"smiles": "CCOc1ccc(NC(=O)CN(C)C(=O)C2COc3ccccc3O2)cc1OCC", "note": "(centres undefined)", "activity change, negative = inhibition": "inconclusive: 2.07%"}, {"smiles": "Cc1cc(C)c2ccc3c(C)c(C)nc3c2[nH]1", "activity change, negative = inhibition": "inconclusive: 14.9%"}, {"smiles": "Nc1c(N(CCC2=CCCCC2)C(=O)c2ccc([N+](=O)[O-])o2)c(=O)[nH]c(=O)n1Cc1ccccc1", "activity change, negative = inhibition": "inconclusive: -0.221%"}, {"smiles": "CC(C)(C)C(=O)[C@@H]1[C@@H]2C(=O)N(c3ccc4c(c3)OCCO4)C(=O)[C@@H]2C2c3ccccc3C=CN21", "note": "(some centres undefined)", "Potency": "inconclusive: 22.4 µM [falling, single point]"}, {"smiles": "CCCCCCN1C=CC=C/C1=C/C=C(C#N)C#N", "activity change, negative = inhibition": "inactive: -0.322%"}, {"smiles": "CC(=O)N1CCN(c2ccc(NC(=O)c3ccc4c(c3)OCCO4)cc2Cl)CC1", "activity change, negative = inhibition": "inconclusive: -18.5%"}, {"smiles": "CCN1CCN(c2ccc(S(=O)(=O)N3CCCCC3)cc2NC(=O)COc2ccc(Cl)cc2)CC1", "activity change, negative = inhibition": "inactive: -1.47%"}, {"smiles": "O=[N+]([O-])c1ccc(-c2ccn[nH]2)o1", "activity change, negative = inhibition": "inactive: -0.296%"}, {"smiles": "Cc1cccc(NS(=O)(=O)c2ccc(-c3cnc(C4CC4)o3)cc2)c1C", "Potency": "inconclusive: 22.4 µM [falling, partial curve]"}, {"smiles": "O=C(Nc1ccccn1)c1ccc2c(=O)n3c(nc2c1)CCCCC3", "Potency": "inconclusive: 32.6 µM [falling, partial curve, poor fit]"}, {"smiles": "O=C(Nc1cccc(S(=O)(=O)N2CCCCC2)c1)c1cccs1", "activity change, negative = inhibition": "inconclusive: -14.2%"}, {"smiles": "Cc1ccc(-c2cc(C(=O)NCc3ccccn3)no2)cc1", "activity change, negative = inhibition": "inactive: 9.27%"}, {"smiles": "FC(F)(F)c1cc(-c2ccccc2)nc(-n2cncn2)n1", "activity change, negative = inhibition": "inconclusive: 4.21%"}, {"smiles": "O=c1c2[nH]c3ccccc3c2ncn1CCC1=CCCCC1", "activity change, negative = inhibition": "inconclusive: 18%"}, {"smiles": "O=C(CSc1nc2ccccc2c(=O)[nH]1)Nc1ccc([N+](=O)[O-])cc1", "activity change, negative = inhibition": "inconclusive: 1.43%"}, {"smiles": "Cc1cc(C)n2nc(C(=O)OCC(=O)NNC(=O)c3ccccc3)nc2n1", "activity change, negative = inhibition": "inconclusive: 1.44%"}, {"smiles": "COc1ccc2c(c1)C1(C)CC(C)(C)N2C(=O)N1c1ccccc1", "note": "(centres undefined)", "Potency": "inconclusive: 15.8 µM [falling, single point]"}, {"smiles": "Cc1cccc(C(=O)Nc2ccc(C(=O)N3CCCCC3C)cc2)c1", "note": "(centres undefined)", "activity change, negative = inhibition": "inconclusive: -0.0046%"}, {"smiles": "Cc1ccc(OCC(=O)N/N=C/c2cccc3cccnc23)cc1", "activity change, negative = inhibition": "inconclusive: -23.4%"}, {"smiles": "COc1ccc(C2=NS(=O)(=O)N(C)C(C(=O)Nc3ccc(C(C)=O)cc3)=C2)cc1OC", "Potency": "inconclusive: 35.5 µM [falling, partial curve, poor fit]"}, {"smiles": "Cc1ccc(S(=O)(=O)Nc2cc(C)c(O)cc2C)cc1", "activity change, negative = inhibition": "inconclusive: -28.1%"}, {"smiles": "CS(=O)(=O)c1ccc(-n2c(=O)n(Cc3ccccc3)c(=O)c3[nH]cnc32)cc1", "activity change, negative = inhibition": "inconclusive: 1.78%"}, {"smiles": "CCC(CCC(=O)Nc1nncs1)C(=O)O", "note": "(centres undefined)", "activity change, negative = inhibition": "inconclusive: 8.1%"}, {"smiles": "O=C(CSc1nc(=O)n2cc(Cl)ccc2n1)Nc1ccc2c(c1)OCCO2", "Potency": "inconclusive: 20.6 µM [falling, partial curve]"}, {"smiles": "O=C(NCC1CCCO1)c1cc([N+](=O)[O-])ccc1Cl", "note": "(centres undefined)", "activity change, negative = inhibition": "inconclusive: 13.5%"}, {"smiles": "CC(C)(C)N=C1NN=C(c2cc3ccccc3o2)CS1", "activity change, negative = inhibition": "inconclusive: 7.61%"}, {"smiles": "CC(=O)c1ccccc1OCc1ccc(S(=O)(=O)Cc2ccccc2)cc1", "Potency": "inconclusive: 11.2 µM [falling, partial curve, poor fit]"}, {"smiles": "NC(=O)c1ccc(N2CCOCC2)nc1", "activity change, negative = inhibition": "inconclusive: -1.77%"}, {"smiles": "O=C(OCCOc1ccccc1)c1cccc(S(=O)(=O)N2CCOCC2)c1", "activity change, negative = inhibition": "inconclusive: -0.662%"}, {"smiles": "O=C(NCc1ccccc1)c1cc(Sc2cccc(Cl)c2)nc2ccccc12", "activity change, negative = inhibition": "inconclusive: 10.3%"}, {"smiles": "CN(C)S(=O)(=O)c1ccc(Cl)c(NC(=O)CN2CCc3ccccc3C2)c1", "activity change, negative = inhibition": "inactive: -1.25%"}, {"smiles": "Cc1cc(=O)[nH]c(S/C=C/c2ccccc2)n1", "Potency": "inconclusive: 4.11 µM [falling, single point]"}, {"smiles": "O=C(NCc1ccccc1)c1ccc(C(=O)N(C2CCCCC2)C2CCCCC2)cc1", "activity change, negative = inhibition": "inactive: -9.44%"}, {"smiles": "O=C(Nc1ccc2c(c1)CCCN2C(=O)c1cccs1)c1cccc(F)c1", "activity change, negative = inhibition": "inconclusive: 6.53%"}, {"smiles": "CN(C)/C=C/C(=O)c1cnc(-c2cccc(Cl)c2)s1", "Potency": "inconclusive: 11.2 µM [falling, partial curve]"}, {"smiles": "COCCC(=O)N1CCCC(CNS(=O)(=O)c2ccc(OC)cc2)C1", "note": "(centres undefined)", "activity change, negative = inhibition": "inactive: 2.06%"}, {"smiles": "Oc1c(Cl)cc(Cl)cc1CNc1ccccn1", "activity change, negative = inhibition": "inconclusive: -12.6%"}, {"smiles": "CCOc1ccc(NC(=S)N2CCN(C/C=C/c3ccccc3)CC2)cc1", "activity change, negative = inhibition": "inactive: -1.28%"}, {"smiles": "O=C(CSc1nnc2ccccn12)Nc1cccc(-c2nc3ccccc3s2)c1", "activity change, negative = inhibition": "inconclusive: -17.9%"}, {"smiles": "CCOc1ccccc1NC(=O)Cn1nnc(C(=O)NCc2cccs2)c1N", "Potency": "inconclusive: 12.6 µM [falling, partial curve]"}, {"smiles": "CCOC(=O)c1c(C)oc2c1c(C(c1cccnc1)N1CCOCC1)c(O)c1ccccc12", "note": "(centres undefined)", "activity change, negative = inhibition": "inconclusive: -0.44%"}, {"smiles": "O=C(Cc1cc(=O)[nH]c(=O)[nH]1)NCCN1CCOCC1", "activity change, negative = inhibition": "inconclusive: 6.61%"}, {"smiles": "O=C(/C=C\\c1ccco1)NC(=S)Nc1ccccc1O", "Potency": "inconclusive: 17.8 µM [falling, partial curve]"}, {"smiles": "COc1ccc(C(=O)NCC(=O)N/N=C/c2ccc([N+](=O)[O-])s2)cc1OC", "activity change, negative = inhibition": "inconclusive: -7.76%"}]}]}
